In publication PMC8294767:
Results are given in words; binding and its absence hold for the method and conditions named. Some binding calls cover weakened binding; strength is not graded here.

Protein sequences, listed by entry. Tags and fused reporters are not part of them. Residues count along the entry.
UniProt P17931: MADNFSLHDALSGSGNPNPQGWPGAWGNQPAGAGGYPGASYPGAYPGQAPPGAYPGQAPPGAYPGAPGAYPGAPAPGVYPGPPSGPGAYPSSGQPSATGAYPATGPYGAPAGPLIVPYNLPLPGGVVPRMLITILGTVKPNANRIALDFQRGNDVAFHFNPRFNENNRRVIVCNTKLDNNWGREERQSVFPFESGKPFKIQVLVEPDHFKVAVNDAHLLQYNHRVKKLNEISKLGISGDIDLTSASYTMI
UniProt Q9HCN6, residues 21-339: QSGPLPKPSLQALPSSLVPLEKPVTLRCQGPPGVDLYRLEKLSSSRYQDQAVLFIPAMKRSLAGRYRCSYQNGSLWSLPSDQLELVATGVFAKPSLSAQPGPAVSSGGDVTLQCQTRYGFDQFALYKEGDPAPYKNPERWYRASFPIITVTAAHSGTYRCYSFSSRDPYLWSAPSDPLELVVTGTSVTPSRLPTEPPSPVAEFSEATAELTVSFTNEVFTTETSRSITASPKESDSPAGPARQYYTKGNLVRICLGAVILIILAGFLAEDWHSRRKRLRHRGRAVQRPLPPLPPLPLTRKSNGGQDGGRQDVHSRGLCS

Legend:
[1] = biological target: galectin-3 (human (endogenous in A2780)) (UniProt P17931); assay: SPR; Nicoya instrument; biotinylated galectin-3 immobilised on a streptavidin-coated chip (~50 RU); purified GPVI (100 ul) injected at 20 ul/min; HBS-EP-EDTA running buffer (0.01 M Hepes, 0.15 M NaCl, 3 mM EDTA, pH 7.4); Langmuir fit; both purified
[2] = biological target: galectin-3 (human (endogenous in A2780)) (UniProt P17931); assay: SPR; inhibition: Revacept (40 ug/ml) added with purified GPVI and injected over galectin-3 immobilised on a streptavidin-coated chip; HBS-EP-EDTA running buffer, pH 7.4; both purified

platelet glycoprotein VI (GPVI) (from UniProt Q9HCN6 21-339) (receptor)
binding [1]: binds
binding [2]: binds
